In the test the target is FLAG-V5-tagged U2-B” (FV5-U2-B”) (UniProt P08579). The test can be described thus: co-IP; anti-FLAG immunoprecipitation of FV5-U2-B” from the spliceosome gel-filtration fractions, western blot. For orientation: Immunoblotting shows a protein as a band on a membrane.

Protein sequences, listed by entry. Tags and fused reporters are not part of them.
UniProt P08579: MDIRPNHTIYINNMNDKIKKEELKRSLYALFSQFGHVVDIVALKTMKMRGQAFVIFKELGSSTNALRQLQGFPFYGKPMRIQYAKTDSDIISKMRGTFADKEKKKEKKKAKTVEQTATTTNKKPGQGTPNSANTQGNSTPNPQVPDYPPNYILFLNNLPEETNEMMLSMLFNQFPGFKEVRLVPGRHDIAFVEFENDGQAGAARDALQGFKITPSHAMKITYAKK

No constants are given. Whether binding was seen depends on the method and setting. Binding seen in cells or lysates may run through a third protein.

B1: Polycomb group protein PHC1 (protein, UniProt P78364 1-1004)
chain: METESEQNSNSTNGSSSSGGSSRPQIAQMSLYERQAVQALQALQRQPNAAQYFHQFMLQQQLSNAQLHSLAAVQQATIAASRQASSPNTSTTQQQTTTTQASINLATTSAAQLISRSQSVSSPSATTLTQSVLLGNTTSPPLNQSQAQMYLRPQLGNLLQVNRTLGRNVPLASQLILMPNGAVAAVQQEVPSAQSPGVHADADQVQNLAVRNQQASAQGPQMQGSTQKAIPPGASPVSSLSQASSQALAVAQASSGATNQSLNLSQAGGGSGNSIPGSMGPGGGGQAHGGLGQLPSSGMGGGSCPRKGTGVVQPLPAAQTVTVSQGSQTEAESAAAKKAEADGSGQQNVGMNLTRTATPAPSQTLISSATYTQIQPHSLIQQQQQIHLQQKQVVIQQQIAIHHQQQFQHRQSQLLHTATHLQLAQQQQQQQQQQQQQQQPQATTLTAPQPPQVPPTQQVPPSQSQQQAQTLVVQPMLQSSPLSLPPDAAPKPPIPIQSKPPVAPIKPPQLGAAKMSAAQQPPPHIPVQVVGTRQPGTAQAQALGLAQLAAAVPTSRGMPGTVQSGQAHLASSPPSSQAPGALQECPPTLAPGMTLAPVQGTAHVVKGGATTSSPVVAQVPAAFYMQSVHLPGKPQTLAVKRKADSEEERDDVSTLGSMLPAKASPVAESPKVMDEKSSLGEKAESVANVNANTPSSELVALTPAPSVPPPTLAMVSRQMGDSKPPQAIVKPQILTHIIEGFVIQEGAEPFPVGCSQLLKESEKPLQTGLPTGLTENQSGGPLGVDSPSAELDKKANLLKCEYCGKYAPAEQFRGSKRFCSMTCAKRYNVSCSHQFRLKRKKMKEFQEANYARVRRRGPRRSSSDIARAKIQGKCHRGQEDSSRGSDNSSYDEALSPTSPGPLSVRAGHGERDLGNPNTAPPTPELHGINPVFLSSNPSRWSVEEVYEFIASLQGCQEIAEEFRSQEIDGQALLLLKEEHLMSAMNIKLGPALKICAKINVLKET
For the molecule B1, the binding result was “no binding”.

Values taken from publication PMC5035054.
